In US7785835 one finds binding data, which are given here for one substance.

Amino acid sequences for entries named in this document (tags omitted). A change or cut given only in a name is not applied to a line headed by its entry. Residues count along the entry.
UniProt P04004, residues 20-478: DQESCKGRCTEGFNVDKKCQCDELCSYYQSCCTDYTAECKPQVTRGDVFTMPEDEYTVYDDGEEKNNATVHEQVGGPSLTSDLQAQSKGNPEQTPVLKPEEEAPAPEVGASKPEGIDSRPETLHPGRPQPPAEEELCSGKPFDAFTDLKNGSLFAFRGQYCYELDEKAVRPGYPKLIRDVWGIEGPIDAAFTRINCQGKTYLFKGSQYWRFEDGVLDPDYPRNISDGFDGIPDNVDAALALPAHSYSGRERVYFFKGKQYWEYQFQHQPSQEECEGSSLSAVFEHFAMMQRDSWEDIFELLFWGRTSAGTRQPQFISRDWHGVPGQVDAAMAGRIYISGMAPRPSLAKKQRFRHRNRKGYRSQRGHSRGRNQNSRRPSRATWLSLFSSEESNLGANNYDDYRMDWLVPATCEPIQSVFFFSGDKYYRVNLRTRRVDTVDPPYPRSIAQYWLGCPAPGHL
UniProt P01344: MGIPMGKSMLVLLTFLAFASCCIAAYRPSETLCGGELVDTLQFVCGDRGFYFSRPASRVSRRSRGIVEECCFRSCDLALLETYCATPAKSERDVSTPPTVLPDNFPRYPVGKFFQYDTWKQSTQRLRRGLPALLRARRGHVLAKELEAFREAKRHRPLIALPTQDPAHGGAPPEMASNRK

No constants are given. Whether binding was seen depends on the method and setting. Binding can be weak; no strength is given.

For this experiment, the target named is vitronectin (UniProt P04004). Put plainly: [^125I]-IGF-II on VN-coated wells without IGFBP.

Consider “insulin-like growth factor-II (from UniProt P01344) (ligand)”, for which the binding entry was “binds”.
